Measurements: the supplement of paper PMC4683952
Some of the results follow. No stated cut-off is given here; in the data, active = 2 or more and inactive = the rest. This data set is noisy: repeats of one test often differ as much as different tests do.

Test system: Lgr5 (MarsCy1-Lgr5-EGFP, U2OS)
Assay: cell-surface Lgr5 expression (SCi1 fluorescence, background-subtracted) relative to WT DMSO (fold of DMSO control); higher = more Lgr5 at the plasma membrane
Conditions: U2OS MarsCy1-Lgr5-EGFP stable; treatment time: overnight; library: ActiProbe-5K (TimTec); 25 µM

Row | SMILES | cell-surface Lgr5 expression
1 | Cc1ccc2nsnc2c1Br | inactive: 1.06
2 | CC1CCc2c(sc(NC(=O)C3CC3)c2C(=O)OC(C)C)C1 (centres undefined) | inactive: 1.23
3 | O=[N+]([O-])c1cc(Oc2ccc(Br)cc2)cc(Oc2ccc(Br)cc2)c1 | inactive: 1.25
4 | [N+](c1ccc(N\N=C(/C2CC2)C2CC2)cc1)([O-])=O | inactive: 0.558
5 | NCC1COc2ccccc2O1 (centres undefined) | inactive: 1.2
6 | CS(=O)(=O)NCCSc1ccc(Cl)cc1 | inactive: 1.13
7 | C(=C/c1ccccc1)/C=N\N1CCN(C2c3ccccc3-c3ccccc32)CC1 | inactive: 0.977
8 | CC1(C)CC(=O)/C(=C/c2cccs2)C(C)(C)N1 | inactive: 1.45
9 | O=S(=O)(NCCC12CC3CC(CC(C3)C1)C2)c1ccc(S(=O)(=O)N2CCOCC2)cc1 | inactive: 0.878
10 | Cc1ccc(S(=O)(=O)CC(=O)Nc2nc3c(s2)C(=O)CC(C)(C)C3)cc1 | inactive: 0.928
11 | COC(=O)C(C)Nc1n[nH]c(=O)[nH]c1=O (centres undefined) | inactive: 1.3
12 | COc1ccc(S(N)(=O)=O)cc1 | inactive: 1.12
13 | CCCCCCCCCCSc1nc2c(c(=O)[nH]c(=O)n2C)n1CCCC | inactive: 1.32
14 | O=C1c2ccccc2S(=O)(=O)N1CC(O)Cn1c2ccc(Br)cc2c2cc(Br)ccc21 (centres undefined) | inactive: 1.05
15 | CC1(C)CC(=O)C2=C(C1)SC(c1ccco1)C(C#N)=C2N (centres undefined) | inactive: 1.13
16 | O=c1ccn(CN2CCCCC2)c(=O)n1CN1CCCCC1 | inactive: 1.01
17 | Cn1c(-c2ccccc2)nn(CN2CCN(C(c3ccccc3)c3ccccc3)CC2)c1=S | inactive: 0.958
18 | Clc1ccc(CN2CCN(Cc3ccc(Cl)cc3)C2c2ccncc2)cc1 | inactive: 1.73
19 | [O-][n+]1onc(/N=N\c2no[n+]([O-])c2-c2ccccc2)c1-c1ccccc1 | inactive: 0.743
20 | O=C(O)c1cc2n(n1)C(C(F)(F)F)CC(C1CC1)N2 (centres undefined) | inactive: 1.05
21 | CN1C(=O)C(C(=O)O)NC1=S (centres undefined) | inactive: 1.16
22 | O=[N+]([O-])c1cn[nH]c1N1CCN(Cc2ccc3c(c2)OCO3)CC1 | inactive: 1.22

Row | SMILES | cell-surface Lgr5 expression
23 | CC(=O)c1ccc(C(C)(C)c2ccc(C(C)(C)c3ccc(C(C)=O)s3)s2)s1 | inactive: 1.11
24 | O=C1CCCCCCCC(=O)OCCCCCCO1 | inactive: 1.29
25 | N#C/N=C(/N)c1sc(Nc2ccccc2)nc1N | inactive: 0.995
26 | O=S(=O)(Nc1ccncc1)c1ccc(Br)cc1 | inactive: 1.09
27 | COc1ccc(-c2nn(CN3CCOCC3)c(=S)[nH]2)cc1 | inactive: 1.3
28 | C=C(C)CSc1nc2c(cc1C#N)CCC2 | inactive: 1.07
29 | C=CC[n+]1ccc(C)cc1N.[Br-] | inactive: 1.2
30 | Cc1nc2onc(N)c2c(C)c1Cl | inactive: 1.05
31 | Fc1ccc(NC(=S)Nc2ccc(Br)c(Cl)c2)cc1 | inactive: 0.886
32 | Clc1cccc(Cl)c1CSc1nc2ccccc2o1 | inactive: 1.15
33 | COc1ccc(Nc2snc(Cl)c2C#N)cc1 | inactive: 0.546
34 | C=CCOc1nc(OC)nc(N2CCCC2)n1 | inactive: 0.909
35 | Cn1nnc(-c2nc(N3CCOCC3)nc(N3CCOCC3)n2)n1 | inactive: 1.31
36 | CC1=NNc2c([N+](=O)[O-])nc(C)n2C1 | inactive: 1.17
37 | CCN(Cc1nonc1C)C(=O)c1ccnn1C(F)F | inactive: 1.12
38 | O=C(O)CC(Sc1cccs1)C(=O)O (centres undefined) | inactive: 1.35
39 | N#CC1=C(N)C(C#N)(C#N)[C@@H](c2ccc(F)cc2)[C@@H]2CSCC=C12 | inactive: 1.19
40 | Fc1ccc(NC(=S)Nc2ccc(Br)cc2)c(F)c1 | inactive: 0.68
41 | CC1CN(C(=O)C(C)C)CC(C)O1 (centres undefined) | inactive: 1.09
42 | Cc1ccsc1/C=N/NC(=O)Cc1cc(=O)[nH][nH]1 | inactive: 0.971
43 | Clc1ncc(Br)c(Cl)n1 | inactive: 1.15
44 | CS(=O)(=O)N1CCN(c2c([N+](=O)[O-])cc(C(F)(F)F)cc2[N+](=O)[O-])CC1 | inactive: 1.18

3 entries from above, as tab-separated lines.
Row	SMILES	cell-surface Lgr5 expression
26	O=S(=O)(Nc1ccncc1)c1ccc(Br)cc1	inactive: 1.09
27	COc1ccc(-c2nn(CN3CCOCC3)c(=S)[nH]2)cc1	inactive: 1.3
28	C=C(C)CSc1nc2c(cc1C#N)CCC2	inactive: 1.07

Continuation:

Row | SMILES | cell-surface Lgr5 expression
45 | c1ccc2c(Cc3ccncc3)c3ccccc3nc2c1 | inactive: 1.32
46 | N#Cc1cnc2c(C#N)cnn2c1N | inactive: 1.01
47 | O=C1CSC(=S)N1Cc1cccnc1 | inactive: 1.71
48 | CC1CCc2c(sc(N)c2C#N)C1 (centres undefined) | inactive: 1.14
49 | CS(=O)(=O)N(Cc1ccon1)c1ccc2c(c1)OCO2 | inactive: 1.22
50 | N#CC1Cc2cc(Br)ccc2-c2cc(F)ccc21 (centres undefined) | inactive: 1.05
51 | S=C([S-])N(CCN(Cc1cccs1)C(=S)[S-])Cc1cccs1.[Na+].[Na+] | inactive: 0.992
52 | O=C1CS/C(=N\c2cnn(COc3ccc(Br)cc3)c2)N1C1CC1 | inactive: 1.6
53 | CNCC1OCCc2ccccc21 (centres undefined) | inactive: 1.12
54 | c1ccc(-n2c3c(c4ccccc42)CCC3)cc1 | inactive: 1.07
55 | Fc1ccc(-c2nnc(S)o2)cc1 | inactive: 1.07
56 | Cc1ccc(/C=N\NC(N)=S)s1 | inactive: 1.07
57 | O=C(O)CCc1ccc(-c2cccs2)o1 | inactive: 1.31
58 | OC1(c2ccccc2)Oc2ccccc2N=C1c1ccccc1 (centres undefined) | inactive: 0.927
59 | CN1COc2ccc3ccccc3c2C1 | inactive: 1.13
60 | O=S(=O)(Nc1cccc2ccccc12)N1CCCCC1 | inactive: 0.756
61 | COC(=O)CCC1(CCC(=O)OC)C(=O)CC(C)(C)CC1=O | inactive: 1.01
62 | CSc1ccc(/C=N/n2c(S)nnc2-c2cccnc2)cc1 | inactive: 0.981
63 | CC1CCN(c2nc(N3CCC(C)CC3)nc(N3CCC(C)CC3)n2)CC1 | inactive: 1.24
64 | Cc1nnc(SCc2csc(N)n2)n1C | inactive: 1.08
65 | CC1CN(S(=O)(=O)c2ccc(F)cc2)CC(C)O1 (centres undefined) | inactive: 1.01
66 | O=C(O)Cc1ccsc1 | inactive: 1.13

4 successive entries out of the list so far, for reference:
Row | SMILES | cell-surface Lgr5 expression
6 | CS(=O)(=O)NCCSc1ccc(Cl)cc1 | inactive: 1.13
7 | C(=C/c1ccccc1)/C=N\N1CCN(C2c3ccccc3-c3ccccc32)CC1 | inactive: 0.977
8 | CC1(C)CC(=O)/C(=C/c2cccs2)C(C)(C)N1 | inactive: 1.45
9 | O=S(=O)(NCCC12CC3CC(CC(C3)C1)C2)c1ccc(S(=O)(=O)N2CCOCC2)cc1 | inactive: 0.878

The listing continues.

Row | SMILES | cell-surface Lgr5 expression
67 | CC(=O)c1nnn(-c2nonc2-n2cccc2)c1C | inactive: 1.35
68 | CSc1ccc(/C=C(/C#N)C(N)=S)cc1 | inactive: 1.34
69 | CCn1ncc(Cl)c1CNC(=S)NCCOC | inactive: 1.15
70 | Nc1n/c(=N\Nc2ccccc2)ss1 | inactive: 1.17
71 | Nn1c(=S)[nH]nc(CCC(=O)O)c1=O | inactive: 1.05
72 | Oc1cc2c(cc1O)CCN=C2 | inactive: 1.14
73 | CC(C)(C)c1cc(C(F)(F)F)c(C#N)c(=S)[nH]1 | inactive: 1.26
74 | OC(OCC1Cc2ccccc2O1)C1Cc2ccccc2O1 (centres undefined) | inactive: 0.982
75 | O=C1CC(c2ccsc2)c2sccc2N1 (centres undefined) | inactive: 0.854
76 | OC1=NN=C(CSc2nnnn2-c2ccc(Cl)cc2)Oc2ccccc21 | inactive: 0.937
77 | N#C/C(=C1\CCCCN1)c1nnc2n1CCCC2 | inactive: 0.792
78 | Br.COc1ccc(-c2cs/c(=N\Cc3ccccc3)[nH]2)cc1 | inactive: 0.939
79 | Clc1cc2cccnc2c2ncccc12 | inactive: 0.413
80 | O=[N+]([O-])c1cccc(N2Cc3ccccc3C2)c1 | active: 2.57
81 | CCC(C)C(=O)Nc1nnc(C(C)C)s1 (centres undefined) | inactive: 1.2
82 | Brc1ccc(C2N(c3ccccc3)CCN2c2ccccc2)s1 | inactive: 0.902
83 | Clc1ccc2c(c1)SS(Cl)=N2 (centres undefined) | inactive: 1.19
84 | CCn1c(=O)n(C2CCCCC2)c(=O)c2c3c(sc21)CCCC3 | inactive: 1.02
85 | Cc1ccc(C2=NNC(C(O)C(O)C(O)C(C)O)S2)cc1 (centres undefined) | inactive: 1.09
86 | COc1ccc2nc(-n3cccc3)sc2c1 | inactive: 1.02
87 | S=C(NC1CCCCC1)NN1CCOCC1 | inactive: 1.18
88 | OCCNCC12CC3CC(CC(C3)C1)C2 | inactive: 1.42

Row | SMILES | cell-surface Lgr5 expression
89 | CC1=CC(C)(C)N(S(=O)(=O)c2ccc(C)cc2)c2ccc(C)cc21 | inactive: 1.58
90 | CCCCCCCCCCCc1nnc(N)s1 | inactive: 0.857
91 | O=C(O)[C@H]1CCCC[C@H]1C(=O)N[C@H]1CCCC[C@@H]1NC(=O)[C@H]1CCCC[C@H]1C(=O)O | inactive: 0.973
92 | Fc1ccc(-c2cn3cc(Cl)ccc3n2)cc1 | inactive: 0.968
93 | N#Cc1c(NC(=O)CSc2sc3c(O)nc(=O)[nH]c3c2C#N)sc2c1CCCC2 | inactive: 1.3
94 | COc1ccc(-c2nc(C(F)(F)F)c(OC)o2)cc1OC | inactive: 1.28
95 | CC(O)CNC12CC3CC(CC(C3)C1)C2 (centres undefined) | inactive: 1.5
96 | N#C/C(=C/c1cc(Br)cs1)C(N)=S | inactive: 1.37
97 | Nc1ccc2ccc(O)nc2n1 | inactive: 1.3
98 | Clc1ccc2c(c1)CN(Cc1ccc3c(c1)OCO3)CO2 | inactive: 1.37
99 | C/C(=N\NC(N)=S)c1cccs1 | inactive: 1.09
100 | CCN(CC)Cc1c(C(=O)NN)nnn1-c1nonc1N | inactive: 1.24
101 | N#CCN(CC#N)S(=O)(=O)c1ccc(F)cc1 | inactive: 0.958
102 | COC(=O)Cc1ccc(C(=O)CCCCCCCCCl)s1 | inactive: 1.07
103 | CC(=O)CC12CC3CC(CC(C3)C1)C2 | inactive: 1.14
104 | CNc1nc(NCCOC23CC4CC(CC(C4)C2)C3)nc(OCC(F)(F)F)n1 | inactive: 0.983
105 | Cc1nc(Nc2ccc3c(c2)OCCO3)nc(Nc2ccc3c(c2)OCCO3)c1[N+](=O)[O-] | inactive: 0.835
106 | O=C(O)CCNc1n[nH]c(=O)[nH]c1=O | inactive: 1.26
107 | CCOC(=O)Cn1nnc(-c2nnn(CC(=O)OCC)n2)n1 | inactive: 1.18
108 | c1ccc(CN2CCN(Cc3ccccc3)C2c2ccc3ccccc3c2)cc1 | inactive: 1.22
109 | [O-][n+]1onc(-c2ccccc2)c1/N=N\c1c(-c2ccccc2)no[n+]1[O-] | inactive: 0.85
